Here are results for 19 molecules from PubChem BioAssay AID2685 (National Center for Advancing Translational Sciences (NCATS), 2010).

This assay is described as follows: qHTS Assay for Lipid Storage Modulators in Drosophila S3 Cells.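 As to cell number change: cells counted by Cell Tracker Red CMTPX staining in the red channel.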 The settings on record: BODIPY lipid droplet fluorescence, 18-24 h; for cell number change: measured here: cell count max response, cells fed with added oleic acid. Put shortly: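 Drosophila S3 cells got compounds at several concentrations plus oleic acid (400 uM solution). Laser-scanning cytometry with 488 nm excitation read lipid droplets at 500-530 nm and cells at 575-640 nm. Percent activity was relative to 20 uM Triacsin C.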

Setting [1] is: measured here: cell number channel AC50, cells fed with added oleic acid.
Setting [2] is: measured here: lipid fluorescence (Fed channel) AC50, cells fed with added oleic acid.

What is called AC50 is the concentration giving half of the maximal activity seen. A lower AC50 goes with activity at low concentration.

This is one part of the list. Shown are side measurements of this screen, not its main read-out; they come without a call. The list favours compounds with an active or inconclusive main result. Words in brackets tell the shape of the fitted curve; partial curves, single points and poor fits give uncertain potencies.

On to `CC(C)C(NC(=O)c1ccccc1F)C(=O)Nc1ccc2c(c1)OCO2` (stereo unspecified), for which the half-maximal activity concentration (AC50) by setting is: under setting [1], 820 nM [rising, partial curve]; under setting [2], 461 nM [rising, full curve].
Regarding `Cc1nc2ccc(NS(=O)(=O)c3ccc(C)c(C)c3)cc2s1`, the cell number change turned out to be 2.66%.
With `COc1cc(C2C(C(=O)c3ccco3)=C(O)C(=O)N2CC2CCCO2)ccc1O` (stereo unspecified), the cell number change amounted to 13.2%.
For the molecule `Cc1ccc2c(c1)c1c(n2CC(O)CN2CCCCCC2)CCCC1` (stereo unspecified), the cell number change is 18.1%. Besides, under setting [2], the AC50 was 580 nM [falling, single point].
On to `CC1(C)CC2CC(C)(CN2C(=O)c2cc(-c3ccc(F)cc3)on2)C1` (stereo unspecified), for which the cell number change was determined as 31.7%. Besides, the AC50 under setting [1] was 23100 nM [rising, partial curve]. Further, under setting [2], the half-maximal activity concentration (AC50) is 1160 nM [rising, single point].
Consider `CCS(=O)(=O)N1CCC(C(=O)N2CCN(Cc3ccccc3)CC2)CC1`, for which the cell number change was -18%. Moreover, under setting [2], the concentration at half-maximal activity (AC50) is 35500 nM [falling, single point].
For the molecule `O=C(CCc1ccc(O)c(O)c1)NNC(=S)NCCc1ccccc1`, the AC50 under setting [1] is 461 nM [falling, partial curve, poor fit].
On to `CCOc1ccccc1C1C(C#N)=C(N)N(N(C)C)C2=C1C(=O)CCC2` (stereo unspecified), for which the cell number change is 15.6%. The AC50 under setting [1] is 3660 nM [rising, partial curve].
On to `Cc1cccc(NC(=O)CN(C)C(C)C(=O)Nc2ccc(S(=O)(=O)N3CCCC3)cc2)c1C` (stereo unspecified), for which the cell number change stood at 12.9%. For the same molecule, the AC50 under setting [1] is 2060 nM [rising, single point].
In the case of `CS(=O)(=O)N1CCCC(C(=O)Nc2ccc(Br)cc2F)C1` (stereo unspecified), the cell number change is -19.6%. Moreover, the half-maximal activity concentration (AC50) under setting [2] is 200 nM [falling, full curve, poor fit].
Consider `Cc1cccc2cccnc12`, for which the cell number change stood at 18.5%. Further, the concentration at half-maximal activity (AC50) under setting [2] is 4.61 nM [rising, full curve, poor fit].
For `COc1ccc(CN2C(=O)C(Cc3ccccc3)Nc3ncnc(N4CCc5ccccc5C4)c32)cc1` (stereo unspecified), the cell number change amounted to 8.85%. Besides, the concentration at half-maximal activity (AC50) under setting [2] was 259 nM [rising, partial curve, poor fit].
Consider `CC(OC(=O)c1ccc(Cl)nc1)C(=O)Nc1ccc2c(c1)OCO2` (stereo unspecified), for which the cell number change turned out to be 6.66%.
Regarding `Cc1cc(C)cc(CSCC(=O)NN=C2CCCCCC2)c1`, the AC50 under setting [2] was 14600 nM [rising, single point].
As for `COc1ccc([C@H]2CC(=O)C=C(c3cccc(NC(C)=O)c3)C2)cc1`, the cell number change was -8.25%. Besides, the concentration at half-maximal activity (AC50) under setting [2] is 29100 nM [falling, single point].
For `Cc1ccc(/C=C/c2ccc(=O)n(Cc3ccc(Cl)cc3Cl)n2)cc1`, the half-maximal activity concentration (AC50) under setting [2] is 8200 nM [rising, partial curve, poor fit].
Regarding `CCOc1cc(/C=C\[N+](=O)[O-])ccc1OCC(=O)Nc1ccccc1C`, the cell number change was determined as 35.1%.
For `O=C(CN1CCOCC1)Nc1ncccn1`, the cell number change was -5.85%.
For `Cc1cc(S(=O)(=O)Nc2cccc(C(=O)O)c2)c(C)c(S(=O)(=O)c2ccc(Cl)cc2)c1`, the cell number change came to 13.4%. The half-maximal activity concentration (AC50) under setting [2] is 3260 nM [falling, full curve, poor fit].
